Data source: PubChem BioAssay AID743121 (NCATS, 2013)

- Assay: 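Genes whose silencing strengthens cell killing by camptothecin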 (primary screen)
- System: MDA-MB-231 cells, a human breast cancer line
- Reagents: single siRNA against human genes, 20 nM siRNA (0.8 pmol per well)
- Timing: 120 h (drug added 48 h after transfection, read 72 h later)
- Challenge: camptothecin 20 nM (about EC30) for 72 h; vehicle 0.1% DMSO in parallel plates
- Read-out: 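CellTiter-Glo ATP signal, scaled to control siRNA as percent viability; sensitisation given as log2 of untreated divided by camptothecin-treated viability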
- Scale: log2 vehicle/camptothecin viability: higher = stronger sensitisation to camptothecin
- Rule for the call: 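Each gene scored by redundant siRNA activity (RSA) over its individual siRNA ratios; a gene is called active at p < 0.001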
Shown is one part, drawn at random, of about 26,000 deposited reagents. 167 of them (0.63%) count as active. 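Calls are per gene from RSA p-values that are not deposited; an individual active-marked siRNA can sensitise only weakly.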 Unmarked entries are inactive. Further read-outs or replicates are left out here.

gene knocked down	PubChem SID	log2 vehicle/camptothecin viability
ANKRD37	SID164660767	0.037
ANKRD37	SID164660769	0.0387
ANKRD37	SID164660773	0.0304
ANKRD37	SID164660774	-0.0844
NOTCH1	SID164378222	-0.0104
NOTCH1	SID164378223	-0.436
NOTCH1	SID164378224	-0.137
NOTCH1	SID164378225	-0.143
AQP6	SID164353871	-0.219
AQP6	SID164353872	-0.303
AQP6	SID164353875	0.171
AQP6	SID164353876	-0.125
PTPRS	SID164384070	0.398
PTPRS	SID164384071	-0.168
PTPRS	SID164384073	-0.288
PTPRS	SID164384076	-0.282
TXNRD1	SID164393048	-0.455
TXNRD1	SID164393049	-0.179
TXNRD1	SID164393050	-0.000268
TXNRD1	SID164393051	0.242
USP11	SID164396598	0.853
USP11	SID164396599	0.154
USP11	SID164396601	-0.168
RABL2B	SID164415963	-0.0098
RABL2B	SID164415964	-0.214
RABL2B	SID164415975	-0.0747
RABL2B	SID174316061	0.21
CA5A	SID164356122	-0.21
CA5A	SID164356124	0.0611
CA5A	SID164356125	-0.177
CA5A	SID164356126	-0.355
COLQ	SID164396741	-0.344
COLQ	SID164396742	0.0254
COLQ	SID164396743	-0.628
COLQ	SID164396744	-0.0579
RAB3D	SID164404462	-0.437
RAB3D	SID164404463	-0.0777
RAB3D	SID164404465	-0.371
RAB3D	SID164404466	0.47
H2AZ2	SID164554010	-0.276
H2AZ2	SID164554011	-0.229
H2AZ2	SID164554012	-0.0106
H2AZ2	SID164554013	-0.284
H2AZ2	SID164554015	0.398
H2AZ2	SID164554019	-0.473
H2AZ2	SID164554021	-0.337
H2AZ2	SID164554024	-0.185
